Test results reported in article PMC6134011.
No constants are given. Whether binding was seen depends on the method and setting. In cells and extracts the contact can be indirect. Some results given as binding are weak or reduced against the parent protein; the word gives no strength. Sequences can lack the tags named with a protein.

Protein sequences, listed by entry. Tags and fused reporters are not part of them. Residues count along the entry.
UniProt O35607, residues 27-1038: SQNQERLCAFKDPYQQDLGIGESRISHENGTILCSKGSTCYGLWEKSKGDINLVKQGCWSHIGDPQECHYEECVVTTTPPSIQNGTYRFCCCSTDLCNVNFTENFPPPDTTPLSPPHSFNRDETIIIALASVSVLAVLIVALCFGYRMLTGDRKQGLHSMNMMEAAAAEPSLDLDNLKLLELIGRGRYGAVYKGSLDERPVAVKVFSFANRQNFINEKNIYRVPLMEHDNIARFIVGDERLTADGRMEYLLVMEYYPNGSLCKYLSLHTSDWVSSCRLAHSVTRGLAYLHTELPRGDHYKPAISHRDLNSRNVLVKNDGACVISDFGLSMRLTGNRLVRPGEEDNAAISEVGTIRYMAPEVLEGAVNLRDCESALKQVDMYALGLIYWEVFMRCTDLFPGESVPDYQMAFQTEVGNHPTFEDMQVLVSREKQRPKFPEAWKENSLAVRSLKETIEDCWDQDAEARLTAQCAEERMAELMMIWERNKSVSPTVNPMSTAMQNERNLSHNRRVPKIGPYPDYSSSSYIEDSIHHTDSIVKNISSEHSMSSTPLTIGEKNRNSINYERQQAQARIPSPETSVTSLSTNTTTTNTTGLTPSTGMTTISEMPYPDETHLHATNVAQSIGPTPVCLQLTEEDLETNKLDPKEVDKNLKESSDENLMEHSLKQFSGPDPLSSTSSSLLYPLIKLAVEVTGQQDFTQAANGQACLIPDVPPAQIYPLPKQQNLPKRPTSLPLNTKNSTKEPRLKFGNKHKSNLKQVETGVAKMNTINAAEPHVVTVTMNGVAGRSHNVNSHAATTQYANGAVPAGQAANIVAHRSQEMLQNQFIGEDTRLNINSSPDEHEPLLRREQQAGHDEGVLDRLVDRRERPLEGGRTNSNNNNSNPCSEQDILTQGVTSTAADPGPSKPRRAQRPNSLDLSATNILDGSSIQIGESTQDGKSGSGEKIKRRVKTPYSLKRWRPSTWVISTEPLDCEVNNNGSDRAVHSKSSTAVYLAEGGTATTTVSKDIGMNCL
UniProt P97471: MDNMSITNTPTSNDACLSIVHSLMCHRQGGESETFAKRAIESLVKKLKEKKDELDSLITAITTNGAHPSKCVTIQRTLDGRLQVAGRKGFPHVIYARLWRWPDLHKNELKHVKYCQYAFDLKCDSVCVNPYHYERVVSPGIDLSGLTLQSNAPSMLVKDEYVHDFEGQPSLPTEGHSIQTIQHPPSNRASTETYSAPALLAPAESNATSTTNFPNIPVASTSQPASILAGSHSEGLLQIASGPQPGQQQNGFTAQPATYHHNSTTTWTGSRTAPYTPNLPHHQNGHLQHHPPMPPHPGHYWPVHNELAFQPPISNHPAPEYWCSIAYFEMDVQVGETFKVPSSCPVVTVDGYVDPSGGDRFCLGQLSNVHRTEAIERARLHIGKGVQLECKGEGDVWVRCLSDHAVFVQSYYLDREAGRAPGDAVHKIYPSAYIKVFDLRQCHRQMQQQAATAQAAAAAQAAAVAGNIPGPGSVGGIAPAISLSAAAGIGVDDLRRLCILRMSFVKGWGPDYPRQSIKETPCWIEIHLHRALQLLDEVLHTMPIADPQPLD

Biological target: T1, Flag-Cited1 (mouse) (UniProt P97769)
T1 sequence: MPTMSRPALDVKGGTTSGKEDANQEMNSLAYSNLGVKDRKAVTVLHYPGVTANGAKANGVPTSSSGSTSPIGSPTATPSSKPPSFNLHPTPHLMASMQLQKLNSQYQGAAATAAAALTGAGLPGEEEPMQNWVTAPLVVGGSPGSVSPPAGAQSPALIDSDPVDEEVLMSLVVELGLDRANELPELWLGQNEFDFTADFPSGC
Assay: co-IP; Whole-cell lysates of E14T ESCs expressing Flag-Cited1, lysed in Co-IP buffer (50 mM Tris-HCl pH 7.5, 150 mM NaCl, 10% glycerol, 2 mM EDTA, 0.5% NP-40, protease inhibitors); precipitated with anti-Flag M2 magnetic beads overnight; western blot of the endogenous partner; 5% of WCL as input

| binding | Substance |
| --- | --- |
| binds | Bmpr2 (from UniProt O35607 27-1038) (receptor) |
| binds | Smad4 (from UniProt P97471 1-551) |
